The text below walks through data of paper PMC6547884, “Molecular Basis for poly(A) RNP Architecture and Recognition by the Pan2-Pan3 Deadenylase” (Cell, 2019).

These are yes or no findings as the source states them, for the method shown. Some entries that bind do so weakly or less than the wild type. For part of these data: Sequences can lack the tags named with a protein.

For experiment [1], the target named is T1, Pan3 (S. cerevisiae, C-terminal deca-histidine tag) (S. cerevisiae) (UniProt P36102).
T1 sequence: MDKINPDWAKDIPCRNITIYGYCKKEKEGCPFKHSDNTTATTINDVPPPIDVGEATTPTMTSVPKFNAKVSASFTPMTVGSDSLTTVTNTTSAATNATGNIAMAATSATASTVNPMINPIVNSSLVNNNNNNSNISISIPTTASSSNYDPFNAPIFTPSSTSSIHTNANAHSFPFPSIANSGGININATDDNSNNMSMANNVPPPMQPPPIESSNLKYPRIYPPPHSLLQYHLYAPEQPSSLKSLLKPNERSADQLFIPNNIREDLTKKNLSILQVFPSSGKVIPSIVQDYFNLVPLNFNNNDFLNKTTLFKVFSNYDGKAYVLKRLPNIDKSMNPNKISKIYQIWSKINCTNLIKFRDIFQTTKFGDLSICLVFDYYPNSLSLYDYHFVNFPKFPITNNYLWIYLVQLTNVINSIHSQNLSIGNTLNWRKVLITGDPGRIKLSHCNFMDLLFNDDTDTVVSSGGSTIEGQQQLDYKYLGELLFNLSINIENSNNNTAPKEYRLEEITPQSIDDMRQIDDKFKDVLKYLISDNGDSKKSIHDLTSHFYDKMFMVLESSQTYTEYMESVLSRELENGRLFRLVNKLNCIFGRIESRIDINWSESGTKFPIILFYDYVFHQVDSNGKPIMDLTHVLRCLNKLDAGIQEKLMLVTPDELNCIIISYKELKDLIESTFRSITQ
In words: co-purification (IMAC, ion exchange, gel filtration); Pan2 and Pan3 variants co-expressed in insect cells; purified via the C-terminal deca-histidine tag on Pan3, then Mono Q and Superdex200 (20 mM HEPES pH 7.5, 200 mM NaCl).

In experiment [2] the target is T1, Pan3 (S. cerevisiae, C-terminal deca-histidine tag) (S. cerevisiae). Briefly: cryo-EM structure; Pan2cat-Pan3 with 90A RNA and three Pab1, reconstituted as for SEC and purified on Superose 6; overall nominal resolution 4.8 Å, focused maps 4.7 and 4.5 Å; both purified.
Experiment [3] has as its target T2, Pan3ΔZn (Pan3Δ[1-74]) (S. cerevisiae) (UniProt P36102).
T2 sequence: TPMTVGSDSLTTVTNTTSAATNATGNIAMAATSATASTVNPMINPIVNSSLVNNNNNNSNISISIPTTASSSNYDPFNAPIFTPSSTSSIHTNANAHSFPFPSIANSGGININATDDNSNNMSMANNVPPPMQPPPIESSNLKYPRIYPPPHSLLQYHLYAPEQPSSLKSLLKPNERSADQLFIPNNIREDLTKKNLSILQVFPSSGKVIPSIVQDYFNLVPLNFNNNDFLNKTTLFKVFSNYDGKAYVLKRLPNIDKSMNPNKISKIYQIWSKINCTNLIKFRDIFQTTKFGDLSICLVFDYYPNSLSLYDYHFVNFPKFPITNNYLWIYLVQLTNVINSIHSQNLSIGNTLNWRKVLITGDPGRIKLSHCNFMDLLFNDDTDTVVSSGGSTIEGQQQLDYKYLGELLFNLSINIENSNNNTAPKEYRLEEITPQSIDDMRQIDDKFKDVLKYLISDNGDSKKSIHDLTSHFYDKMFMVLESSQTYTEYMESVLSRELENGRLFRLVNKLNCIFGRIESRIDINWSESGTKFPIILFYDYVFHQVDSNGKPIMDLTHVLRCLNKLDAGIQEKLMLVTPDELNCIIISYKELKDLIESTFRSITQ
Briefly: co-purification (IMAC, ion exchange, gel filtration); Pan2 and Pan3 variants co-expressed in insect cells; purified via the C-terminal deca-histidine tag on Pan3, then Mono Q and Superdex200 (20 mM HEPES pH 7.5, 200 mM NaCl). On the technique in general: Size exclusion chromatography separates by hydrodynamic size, large species first.

In experiment [4] the target is T3, Pan3Δ(1-162) (S. cerevisiae) (UniProt P36102).
T3 sequence: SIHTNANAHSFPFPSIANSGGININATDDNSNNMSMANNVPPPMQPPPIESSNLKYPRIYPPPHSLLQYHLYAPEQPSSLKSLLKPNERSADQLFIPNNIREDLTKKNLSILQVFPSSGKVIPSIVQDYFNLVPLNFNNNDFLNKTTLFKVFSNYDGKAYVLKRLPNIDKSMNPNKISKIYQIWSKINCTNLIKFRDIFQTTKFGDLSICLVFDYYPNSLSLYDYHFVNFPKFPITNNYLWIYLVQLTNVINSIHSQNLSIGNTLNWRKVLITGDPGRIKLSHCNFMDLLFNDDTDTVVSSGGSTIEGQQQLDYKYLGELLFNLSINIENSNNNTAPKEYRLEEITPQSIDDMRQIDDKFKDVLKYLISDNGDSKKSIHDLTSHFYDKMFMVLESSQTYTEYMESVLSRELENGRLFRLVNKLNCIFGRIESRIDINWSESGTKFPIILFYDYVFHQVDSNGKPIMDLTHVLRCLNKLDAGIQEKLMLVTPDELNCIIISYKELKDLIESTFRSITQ
Briefly: cryo-EM structure; substrate-free Pan2cat-Pan3Δ(1-162); Volta phase plate; nominal global resolution about 4.5 Å; both purified.

Experiment [5] has as its target T4, Pan3Δ(1–138) (S. cerevisiae) (UniProt P36102).
T4 sequence: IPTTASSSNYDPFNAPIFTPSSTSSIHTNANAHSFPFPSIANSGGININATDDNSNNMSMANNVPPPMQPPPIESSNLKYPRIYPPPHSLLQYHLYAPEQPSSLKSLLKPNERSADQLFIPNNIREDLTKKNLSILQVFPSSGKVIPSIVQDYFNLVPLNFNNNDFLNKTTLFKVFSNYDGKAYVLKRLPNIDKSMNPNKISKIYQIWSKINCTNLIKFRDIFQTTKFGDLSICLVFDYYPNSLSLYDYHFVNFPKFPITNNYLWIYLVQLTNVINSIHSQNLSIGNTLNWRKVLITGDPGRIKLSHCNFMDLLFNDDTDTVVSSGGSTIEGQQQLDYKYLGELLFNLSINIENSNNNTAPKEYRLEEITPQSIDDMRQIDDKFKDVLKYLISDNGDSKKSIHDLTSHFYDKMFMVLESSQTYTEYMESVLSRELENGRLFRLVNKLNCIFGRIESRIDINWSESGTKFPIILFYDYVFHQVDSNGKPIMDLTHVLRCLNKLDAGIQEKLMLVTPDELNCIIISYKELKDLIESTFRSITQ
In words: co-purification (IMAC, ion exchange, gel filtration); Pan2 and Pan3 variants co-expressed in insect cells; purified via the C-terminal deca-histidine tag on Pan3, then Mono Q and Superdex200 (20 mM HEPES pH 7.5, 200 mM NaCl).

B1: Pan2ΔWD40 (domain or fragment, UniProt P53010 340-1115)
chain: MLAYPDYFNDITSDGPISVDDETYPLSSVGMPYYLDKLLSAWPPVVFKSEGTIPQLTGKSPLPSSGKLKSNLAVISSQNEKLSTQEFPLLRYDRTKYGMRNAIPDYVCLRDIRKQITSGLETSDIQTYTSINKYEVPPAYSRLPLTSGRFGTDNFDFTPFNNTEYSGLDPDVDNHYTNAIIQLYRFIPEMFNFVVGCLKDENFETTLLTDLGYLFDMMERSHGKICSSSNFQASLKSLTDKRQLENGEPQEHLEEYLESLCIRESIEDFNSSESIKRNMPQKFNRFLLSQLIKEEAQTVNHNITLNQCFGLETEIRTECSCDHYDTTVKLLPSLSISGINKTVIKQLNKKSNGQNILPYIEYAMKNVTQKNSICPTCGKTETITQECTVKNLPSVLSLELSLLDTEFSNIRSSKNWLTSEFYGSIIKNKAVLRSTASELKGTSHIFKYELNGYVAKITDNNNETRLVTYVKKYNPKENCFKWLMFNDYLVVEITEEEALKMTYPWKTPEIIIYCDAEELRKPFFSVDTYSINYDILFRDYFANGIRDTARREYKLLTHDEAPKSGTLVAIDAEFVSLQSELCEIDHQGIRSIIRPKRTALARISIIRGEEGELYGVPFVDDYVVNTNHIEDYLTRYSGILPGDLDPEKSTKRLVRRNVVYRKVWLLMQLGCVFVGHGLNNDFKHININVPRNQIRDTAIYFLQGKRYLSLRYLAYVLLGMNIQEGNHDSIEDAHTALILYKKYLHLKEKAIFEKVLNSVYEEGRAHNFKVPETSKG
Regarding B1, the binding result in experiment [1] was “binds”.

B2: Pan2cat (Pan2 Asp1020Ala mutant) (enzyme, UniProt P53010 1-1115)
chain: MNNWQHFFNNPVDLSEHLKKPYFRFDNRDKEITAISFDEKANLIWSGDSYGCISSYDPTFQLYTRYRGHIGGNSVKDILSHRDGILSISEDSLHFANRRGVTKLNLTSIDIAAFSELNTMCYSPHSLKNNIYCGGDNTNWGIASIDLNRGCLDSLLNYSSKVKLMCSNNKVLSIGRQTGTVDLLDPTSNRTIKSFNAHSASISAMDLRDNTLVTVGKSKRFYNLYADPFVNVYDLRTMRQLPPVSFSKGTTMGSGGADFVQLHPLLPTVMIVASSSGSFDFIDLSNPTLRTQYVHPCQSIKKLCLSPNGDVLGILEADNHLDTWRRSSNNMGMFTNTPEMLAYPDYFNDITSDGPISVDDETYPLSSVGMPYYLDKLLSAWPPVVFKSEGTIPQLTGKSPLPSSGKLKSNLAVISSQNEKLSTQEFPLLRYDRTKYGMRNAIPDYVCLRDIRKQITSGLETSDIQTYTSINKYEVPPAYSRLPLTSGRFGTDNFDFTPFNNTEYSGLDPDVDNHYTNAIIQLYRFIPEMFNFVVGCLKDENFETTLLTDLGYLFDMMERSHGKICSSSNFQASLKSLTDKRQLENGEPQEHLEEYLESLCIRESIEDFNSSESIKRNMPQKFNRFLLSQLIKEEAQTVNHNITLNQCFGLETEIRTECSCDHYDTTVKLLPSLSISGINKTVIKQLNKKSNGQNILPYIEYAMKNVTQKNSICPTCGKTETITQECTVKNLPSVLSLELSLLDTEFSNIRSSKNWLTSEFYGSIIKNKAVLRSTASELKGTSHIFKYELNGYVAKITDNNNETRLVTYVKKYNPKENCFKWLMFNDYLVVEITEEEALKMTYPWKTPEIIIYCDAEELRKPFFSVDTYSINYDILFRDYFANGIRDTARREYKLLTHDEAPKSGTLVAIDAEFVSLQSELCEIDHQGIRSIIRPKRTALARISIIRGEEGELYGVPFVDDYVVNTNHIEDYLTRYSGILPGDLDPEKSTKRLVRRNVVYRKVWLLMQLGCVFVGHGLNNAFKHININVPRNQIRDTAIYFLQGKRYLSLRYLAYVLLGMNIQEGNHDSIEDAHTALILYKKYLHLKEKAIFEKVLNSVYEEGRAHNFKVPETSKG
In the case of B2, the binding entry in experiment [2], in experiment [3] and in experiment [4] was “binds” in each case.

B3: Pan2 (wild-type S. cerevisiae) (enzyme, UniProt P53010 1-1115)
chain: MNNWQHFFNNPVDLSEHLKKPYFRFDNRDKEITAISFDEKANLIWSGDSYGCISSYDPTFQLYTRYRGHIGGNSVKDILSHRDGILSISEDSLHFANRRGVTKLNLTSIDIAAFSELNTMCYSPHSLKNNIYCGGDNTNWGIASIDLNRGCLDSLLNYSSKVKLMCSNNKVLSIGRQTGTVDLLDPTSNRTIKSFNAHSASISAMDLRDNTLVTVGKSKRFYNLYADPFVNVYDLRTMRQLPPVSFSKGTTMGSGGADFVQLHPLLPTVMIVASSSGSFDFIDLSNPTLRTQYVHPCQSIKKLCLSPNGDVLGILEADNHLDTWRRSSNNMGMFTNTPEMLAYPDYFNDITSDGPISVDDETYPLSSVGMPYYLDKLLSAWPPVVFKSEGTIPQLTGKSPLPSSGKLKSNLAVISSQNEKLSTQEFPLLRYDRTKYGMRNAIPDYVCLRDIRKQITSGLETSDIQTYTSINKYEVPPAYSRLPLTSGRFGTDNFDFTPFNNTEYSGLDPDVDNHYTNAIIQLYRFIPEMFNFVVGCLKDENFETTLLTDLGYLFDMMERSHGKICSSSNFQASLKSLTDKRQLENGEPQEHLEEYLESLCIRESIEDFNSSESIKRNMPQKFNRFLLSQLIKEEAQTVNHNITLNQCFGLETEIRTECSCDHYDTTVKLLPSLSISGINKTVIKQLNKKSNGQNILPYIEYAMKNVTQKNSICPTCGKTETITQECTVKNLPSVLSLELSLLDTEFSNIRSSKNWLTSEFYGSIIKNKAVLRSTASELKGTSHIFKYELNGYVAKITDNNNETRLVTYVKKYNPKENCFKWLMFNDYLVVEITEEEALKMTYPWKTPEIIIYCDAEELRKPFFSVDTYSINYDILFRDYFANGIRDTARREYKLLTHDEAPKSGTLVAIDAEFVSLQSELCEIDHQGIRSIIRPKRTALARISIIRGEEGELYGVPFVDDYVVNTNHIEDYLTRYSGILPGDLDPEKSTKRLVRRNVVYRKVWLLMQLGCVFVGHGLNNDFKHININVPRNQIRDTAIYFLQGKRYLSLRYLAYVLLGMNIQEGNHDSIEDAHTALILYKKYLHLKEKAIFEKVLNSVYEEGRAHNFKVPETSKG
Consider B3, for which the binding entry in experiment [1] and in experiment [5] was “binds” each time.
